Measurements: paper doi:10.1101/529222
Where a chain is given by its changes, count along the chain named. These are yes or no findings as the source states them, for the method shown. Binding seen in cells or lysates may run through a third protein. Some entries that bind do so weakly or less than the wild type. For some of these results: Tags and fused reporters may be left off the sequences shown.

Protein sequences, listed by entry. Tags and fused reporters are not part of them.
UniProt Q9C026: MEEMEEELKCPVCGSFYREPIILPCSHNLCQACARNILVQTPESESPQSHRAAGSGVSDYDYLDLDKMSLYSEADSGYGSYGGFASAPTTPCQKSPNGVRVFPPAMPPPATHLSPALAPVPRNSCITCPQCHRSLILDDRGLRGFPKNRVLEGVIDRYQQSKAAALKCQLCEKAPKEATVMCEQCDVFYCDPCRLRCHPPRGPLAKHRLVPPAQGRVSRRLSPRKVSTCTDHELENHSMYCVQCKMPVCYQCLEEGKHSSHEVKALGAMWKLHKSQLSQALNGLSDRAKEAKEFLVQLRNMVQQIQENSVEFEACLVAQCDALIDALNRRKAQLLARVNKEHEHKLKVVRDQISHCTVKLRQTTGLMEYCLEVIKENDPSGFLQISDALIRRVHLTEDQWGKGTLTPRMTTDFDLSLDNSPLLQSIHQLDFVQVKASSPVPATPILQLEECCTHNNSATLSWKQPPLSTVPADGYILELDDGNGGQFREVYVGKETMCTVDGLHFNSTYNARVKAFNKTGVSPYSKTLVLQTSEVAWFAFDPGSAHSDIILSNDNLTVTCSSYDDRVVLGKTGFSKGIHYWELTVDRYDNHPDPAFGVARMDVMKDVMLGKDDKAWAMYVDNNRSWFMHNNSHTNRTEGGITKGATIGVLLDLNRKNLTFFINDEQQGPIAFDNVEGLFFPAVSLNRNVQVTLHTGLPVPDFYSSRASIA
UniProt P50552: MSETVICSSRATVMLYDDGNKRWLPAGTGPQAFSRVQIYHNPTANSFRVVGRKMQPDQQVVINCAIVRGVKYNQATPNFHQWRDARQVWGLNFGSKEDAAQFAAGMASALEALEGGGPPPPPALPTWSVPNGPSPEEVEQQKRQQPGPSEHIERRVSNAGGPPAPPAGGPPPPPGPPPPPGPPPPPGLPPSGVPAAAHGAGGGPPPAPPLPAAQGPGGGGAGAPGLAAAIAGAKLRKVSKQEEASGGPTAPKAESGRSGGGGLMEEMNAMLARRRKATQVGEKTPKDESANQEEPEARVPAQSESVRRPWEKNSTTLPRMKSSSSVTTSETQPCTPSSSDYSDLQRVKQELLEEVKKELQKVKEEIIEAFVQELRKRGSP

How the values were obtained:
Test in all cases: co-IP
[1] = target: T1, Myc-TRIM67 ligase dead (mouse) (UniProt Q505D9)
T1 sequence: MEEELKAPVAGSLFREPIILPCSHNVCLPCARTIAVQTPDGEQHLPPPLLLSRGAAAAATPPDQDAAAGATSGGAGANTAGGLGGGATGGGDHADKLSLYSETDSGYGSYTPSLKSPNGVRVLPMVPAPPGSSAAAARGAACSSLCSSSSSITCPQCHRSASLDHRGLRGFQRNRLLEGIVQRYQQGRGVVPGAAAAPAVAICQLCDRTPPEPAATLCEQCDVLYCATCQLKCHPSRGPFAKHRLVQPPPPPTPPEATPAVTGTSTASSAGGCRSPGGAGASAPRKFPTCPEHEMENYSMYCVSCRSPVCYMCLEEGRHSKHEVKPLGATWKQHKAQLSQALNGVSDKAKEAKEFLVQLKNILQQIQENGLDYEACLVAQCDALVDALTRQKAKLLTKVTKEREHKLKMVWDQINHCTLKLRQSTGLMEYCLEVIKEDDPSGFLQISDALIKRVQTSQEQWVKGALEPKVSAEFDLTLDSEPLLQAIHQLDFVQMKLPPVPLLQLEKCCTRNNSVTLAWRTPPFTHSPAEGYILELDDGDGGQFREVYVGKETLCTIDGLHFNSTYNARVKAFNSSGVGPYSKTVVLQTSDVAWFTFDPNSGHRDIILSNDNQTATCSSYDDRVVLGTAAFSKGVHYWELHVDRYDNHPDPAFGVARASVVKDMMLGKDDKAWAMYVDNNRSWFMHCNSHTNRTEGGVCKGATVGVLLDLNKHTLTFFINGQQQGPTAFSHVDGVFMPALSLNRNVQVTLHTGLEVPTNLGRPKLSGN

myc-tagged TRIM9 (human) = myc-tagged TRIM9 (human) (UniProt Q9C026)
Myc-TRIM67 (mouse) = target: T2, Myc-TRIM67 (mouse) (UniProt Q505D9)
T2 sequence: T1 sequence with A7C, A10C

MycTRIM67ΔRING (mouse) = target: T3, MycTRIM67ΔRING (mouse) (UniProt Q505D9)
T3 sequence: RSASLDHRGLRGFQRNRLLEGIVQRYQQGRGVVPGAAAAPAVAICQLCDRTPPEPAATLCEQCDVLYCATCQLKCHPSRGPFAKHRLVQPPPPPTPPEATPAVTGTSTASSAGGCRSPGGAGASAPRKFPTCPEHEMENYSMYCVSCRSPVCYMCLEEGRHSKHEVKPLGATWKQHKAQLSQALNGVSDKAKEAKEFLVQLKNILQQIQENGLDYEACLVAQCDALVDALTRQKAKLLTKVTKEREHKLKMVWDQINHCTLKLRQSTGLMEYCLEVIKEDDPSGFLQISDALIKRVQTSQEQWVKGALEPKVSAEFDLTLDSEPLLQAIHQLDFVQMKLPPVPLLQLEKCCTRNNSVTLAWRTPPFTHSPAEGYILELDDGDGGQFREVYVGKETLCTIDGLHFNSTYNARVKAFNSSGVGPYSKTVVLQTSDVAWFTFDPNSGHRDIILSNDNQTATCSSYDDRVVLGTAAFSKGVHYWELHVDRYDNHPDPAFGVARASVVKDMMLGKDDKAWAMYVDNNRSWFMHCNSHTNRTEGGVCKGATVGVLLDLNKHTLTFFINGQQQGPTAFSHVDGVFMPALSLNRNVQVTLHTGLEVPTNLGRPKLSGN

Measured: binding

GFP-VASP (from UniProt P50552 1-380)
binds: all assays above
